Measured data: PubChem BioAssay AID493246 (Drosophila RNAi Screening Center, 2011)

- Test: 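Genes fly cells need to grow and stay alive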 (primary screen)
- Cells: Drosophila Kc and S2R+ cells
- Reagents: long dsRNA against Drosophila genes
- Measurement: 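Cell number per well after knock-down, printed as raw plate values; calls were based on per-plate z-scores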
- Direction: Kc cell number and S2R+ cell number: higher = more cells remaining
- Hit rule: 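Active when the per-plate z-score of cell number is 3 or more in the direction of fewer cells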
The deposit covers about 21,000 reagents; this is a random part of those with a known target gene and a result. Over the whole deposit, 429 (2%) got an active call. 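Values are raw and not normalised between plates; calls rest on per-plate z-scores that were not deposited.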 Unmarked entries are inactive. The numbers tell different reagents against one gene apart. Reagent sequences are not shown. Not stated in the record: the amount of reagent, the time to read-out.

CG31802
- Kc cell number, rep 1: 1.69e6
- Kc cell number, rep 2: 1.65e6
- S2R+ cell number, rep 1: 1.24e6
- S2R+ cell number, rep 2: 1.50e6

Cap-D2 (CAP-D2 condensin subunit)
- Kc cell number, rep 1: 5.25e5
- S2R+ cell number, rep 1: 6.71e5

tant (tantalus)
- Kc cell number, rep 1: 1.65e6
- Kc cell number, rep 2: 1.47e6
- S2R+ cell number, rep 1: 1.18e6
- S2R+ cell number, rep 2: 1.24e6

cold (coiled)
- Kc cell number, rep 1: 1.34e6
- Kc cell number, rep 2: 1.44e6
- S2R+ cell number, rep 1: 1.06e6
- S2R+ cell number, rep 2: 1.18e6

Cep97 (Centrosomal protein 97kDa)
- Kc cell number, rep 1: 1.38e6
- Kc cell number, rep 2: 1.36e6
- S2R+ cell number, rep 1: 9.90e5
- S2R+ cell number, rep 2: 1.05e6

Pdha (Pyruvate dehydrogenase E1 alpha subunit)
- Kc cell number, rep 1: 1.47e6
- Kc cell number, rep 2: 1.46e6
- S2R+ cell number, rep 1: 1.01e6
- S2R+ cell number, rep 2: 1.14e6

Continued (2 carried over from the part before).
Cep97 (Centrosomal protein 97kDa)
- Kc cell number, rep 1: 1.38e6
- Kc cell number, rep 2: 1.36e6
- S2R+ cell number, rep 1: 9.90e5
- S2R+ cell number, rep 2: 1.05e6

Pdha (Pyruvate dehydrogenase E1 alpha subunit)
- Kc cell number, rep 1: 1.47e6
- Kc cell number, rep 2: 1.46e6
- S2R+ cell number, rep 1: 1.01e6
- S2R+ cell number, rep 2: 1.14e6

Rpp25 (Ribonuclease P/MRP subunit p25)
- Kc cell number, rep 1: 1.68e6
- Kc cell number, rep 2: 1.80e6
- S2R+ cell number, rep 1: 1.34e6
- S2R+ cell number, rep 2: 1.45e6

vvl (ventral veins lacking)
- Kc cell number, rep 1: 1.29e6
- Kc cell number, rep 2: 1.24e6
- S2R+ cell number, rep 1: 1.21e6
- S2R+ cell number, rep 2: 1.25e6

unc80 (uncoordinated 80)
- Kc cell number, rep 1: 1.53e6
- Kc cell number, rep 2: 1.51e6
- S2R+ cell number, rep 1: 1.02e6
- S2R+ cell number, rep 2: 1.16e6

CG31010
- Kc cell number, rep 1: 1.31e6
- Kc cell number, rep 2: 1.46e6
- S2R+ cell number, rep 1: 1.05e6
- S2R+ cell number, rep 2: 1.12e6

Alh (Alhambra) #1
- Kc cell number, rep 1: 1.01e6 (active)
- Kc cell number, rep 2: 9.92e5
- S2R+ cell number, rep 1: 7.40e5
- S2R+ cell number, rep 2: 8.51e5

Alh (Alhambra) #2
- Kc cell number, rep 1: 1.45e6
- Kc cell number, rep 2: 1.46e6
- S2R+ cell number, rep 1: 1.25e6
- S2R+ cell number, rep 2: 1.30e6

Alh (Alhambra) #3
- Kc cell number, rep 1: 1.67e6
- Kc cell number, rep 2: 1.76e6
- S2R+ cell number, rep 1: 1.28e6
- S2R+ cell number, rep 2: 1.46e6

Ssk (Snakeskin)
- Kc cell number, rep 1: 1.67e6
- Kc cell number, rep 2: 1.68e6
- S2R+ cell number, rep 1: 1.24e6
- S2R+ cell number, rep 2: 1.29e6
